Measured values published in PMC6797233.
Construct, isoform or probe ends are uncertain for at least one entry. No signal at the amounts used counts as a negative.

Chains of the proteins cited; added tags and fusions are not shown. A line that says so, or that is headed by a name, gives the form on record, which may keep a tag or linker.
Ubx (isoform Ia) + Exd (Extradenticle) + HthHM (Homothorax, homeodomain-less isoform), one chain, as listed by the source, chain 1 of 3: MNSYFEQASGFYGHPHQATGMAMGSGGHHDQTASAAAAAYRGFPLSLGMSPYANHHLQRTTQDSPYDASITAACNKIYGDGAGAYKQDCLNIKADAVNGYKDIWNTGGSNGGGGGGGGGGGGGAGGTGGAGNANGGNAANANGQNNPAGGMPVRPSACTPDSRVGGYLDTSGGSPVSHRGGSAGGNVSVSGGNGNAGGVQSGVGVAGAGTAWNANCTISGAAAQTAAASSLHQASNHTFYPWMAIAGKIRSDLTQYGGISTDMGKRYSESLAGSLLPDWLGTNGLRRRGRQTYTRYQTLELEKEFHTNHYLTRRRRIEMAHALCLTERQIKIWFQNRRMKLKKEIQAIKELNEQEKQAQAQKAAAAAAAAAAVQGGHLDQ
Ubx (isoform Ia) + Exd (Extradenticle) + HthHM (Homothorax, homeodomain-less isoform), one chain, as listed by the source, chain 3 of 3: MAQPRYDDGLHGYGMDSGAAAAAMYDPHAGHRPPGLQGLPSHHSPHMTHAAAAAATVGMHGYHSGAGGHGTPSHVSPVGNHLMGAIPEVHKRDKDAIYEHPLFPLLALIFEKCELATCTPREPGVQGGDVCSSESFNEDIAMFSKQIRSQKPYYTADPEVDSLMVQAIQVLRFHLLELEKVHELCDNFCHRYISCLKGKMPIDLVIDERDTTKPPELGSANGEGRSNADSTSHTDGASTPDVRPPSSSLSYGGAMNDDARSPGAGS
Ubx (isoform Ia) + Exd (Extradenticle) + HthHM (Homothorax, homeodomain-less isoform), one chain, as listed by the source, chain 2 of 3: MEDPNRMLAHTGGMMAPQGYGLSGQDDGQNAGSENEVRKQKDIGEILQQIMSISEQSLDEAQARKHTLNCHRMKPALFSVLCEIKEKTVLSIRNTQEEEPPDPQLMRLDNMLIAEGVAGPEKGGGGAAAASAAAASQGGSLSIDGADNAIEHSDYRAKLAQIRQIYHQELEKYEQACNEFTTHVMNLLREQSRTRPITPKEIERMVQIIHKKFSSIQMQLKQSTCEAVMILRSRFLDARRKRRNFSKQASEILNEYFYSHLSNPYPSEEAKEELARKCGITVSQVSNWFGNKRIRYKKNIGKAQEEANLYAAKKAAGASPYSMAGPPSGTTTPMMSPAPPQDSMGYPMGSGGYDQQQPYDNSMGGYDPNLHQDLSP

System: Ubx (isoform Ia) + Exd (Extradenticle) + HthHM (Homothorax, homeodomain-less isoform)
Assay: EMSA
Details: Ubx 200 or 250 ng/lane, Exd/HthHM 150 ng/lane, EMSA as previously described (ref 47), pH and temperature not given, recombinant protein, protein details: His-tag,His-tag

CCTCGTCCCACAGCTCGAATCCCCTTCCCCACCCGGAGCAAATGCAGCCA (double strand) [abxCluster1Kill]
binding result (binding lost): no binding

CCTCGTCCCACAGCTCGAATATATTTTATAACCCGGAGCAAATGCAGCCA (double strand) [abxWT]
binding result: binds
